For at least one compound, name, drawing or mass did not settle the structure.
Test system: chicken ALAS1 drug responsive enhancer sequence (ADRES) elements
Assay: Luciferase reporter gene assay of chicken ALAS1 5'-flanking fragments / ADRES elements in transfected LMH cells
Type: cell-based
Conditions: 16 h, PIA 250 μM, glutethimide 500 μM, metyrapone 400 μM, dexamethasone 50 μM, RU-486 10 μM, rifampicin 100 μM, TCPOBOP 10 μM, compared with PB 600 μM
Description: The constructs were transfected together with a transfection-control construct expressing β-galactosidase into LMH cells. Cells were then treated with 600 μM PB for 16 h and luciferase assays were performed on the cell extracts. Relative luciferase levels are standardized against cells transfected with vector containing no insert and expressed as fold induction. Experiments were repeated at least three times and data from a representative experiment tested in triplicate are shown here. Error bars represent standard deviations;
Three major subclones were generated from the region upstream of the transcriptional start site, including a 3282 bp SmaI fragment and 5056 bp and 7973 bp EcoRI segments (FIG. 1A). The SmaI clone extends from −167 bp to −3449 bp, whereas the EcoRI subfragments span the regions from −2347 bp to −7402 bp and −7403 bp to −15376 bp, respectively. These subfragments were cloned into the pLucMCS modified luciferase vector containing an SV40 promoter as described in Materials and Methods. Drug inducibility was measured in transiently transfected LMH cells treated with 600 μM PB and compared with control values. […]
The modified enhancers were examined for response to 600 μM PB in luciferase reporter gene assays and the results are presented in FIG. 3. […]

Compound | ADRES activation in reporter assays
C[C@@H]1C[C@H]2[C@@H]3CCC4=CC(=O)C=C[C@]4(C)[C@@]3(F)[C@@H](O)C[C@]2(C)[C@@]1(O)C(=O)CO [dexamethasone, Dexamethasone] | minor or no effects
CO[C@H]1/C=C/O[C@@]2(C)Oc3c(C)c(O)c4c(O)c(c(/C=N/N5CCN(C)CC5)c(O)c4c3C2=O)NC(=O)/C(C)=C\C=C\[C@H](C)[C@H](O)[C@@H](C)[C@@H](O)[C@@H](C)[C@H](OC(C)=O)[C@@H]1C [rifampicin] | minor or no effects
